{"source": "patent US20260234217A1", "about": "“USE OF BMP RECEPTOR ALK1 INHIBITORS IN OSTEOARTHRITIS THERAPIES” (The Regents of the University of California, priority 2023, published 2026)", "origin": "cited, not measured here", "settings": "cited from earlier work", "note": "At least one structure is not confirmed: it was looked up by name or label, or the drawing left a doubt.", "data": [{"smiles": "COc1cc(-c2cc(-c3ccc(N4CCNCC4)cc3)cnc2C)cc(OC)c1OC", "note": "[LDN-214117]", "values": [{"measurement": "tolerability", "value": "well tolerated"}]}]}
